{
  "source": "the supplement of paper PMC8728848",
  "binders": {"B1": {"name": "Mincle (Bos taurus) (protein)", "chain": "MNSSTSPASQTERRCFSFQLFSWAIAGTSILLLSACFITRCVVTYSIFQLCDEKKFQPPGDSMELSCYNDGSGSVKNCCPLKWFHFQSSCYLFSPDTMSWRASLKNCSSMGAHLVVINTQEEQEFLYYTKPRKKEFYIGLTDQVTEGQWQWVDGTPFTKSLSFWDAGEPNNLVIVEDCATIRDSSNPRQNWNDVPCFFNMFRVCEMPERKI"}},
  "test_in_all_cases": "glycan array binding signal (z-score within array); higher = stronger binding",
  "conditions_in_all_cases": "glycan notation: IUPAC condensed, linker removed",
  "key": {"Fuc(a1-3)GlcNAc": {"molecular_target": "Fuc(a1-3)GlcNAc", "summary_of_the_method": "(§1)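 The binding signal is a Z-score computed within each array. Data were drawn from 3228 arrays in the Consortium for Functional Glycomics database, restricted to those with a known protein sequence. Scores were averaged over arrays of the same protein sequence at different concentrations or buffers, and over linkers, and negative values can be taken as non-binding.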"}, "[1]": {"molecular_target": "Fuc(a1-3)[Gal(b1-4)]Glc6S", "summary_of_the_method": "as §1"}, "[2]": {"molecular_target": "Fuc(a1-3)[Gal(b1-4)]GlcNAc", "summary_of_the_method": "as §1"}, "[3]": {"molecular_target": "Fuc(a1-3)[Gal(b1-4)]GlcNAc(b1-2)Man", "summary_of_the_method": "as §1"}, "[4]": {"molecular_target": "Fuc(a1-3)[Gal(b1-4)]GlcNAc(b1-2)Man(a1-3)[Fuc(a1-3)[Gal(b1-4)]GlcNAc(b1-2)Man(a1-6)]Man(b1-4)GlcNAc(b1-4)GlcNAc", "summary_of_the_method": "as §1"}, "[5]": {"molecular_target": "Fuc(a1-3)[Gal(b1-4)]GlcNAc(b1-2)Man(a1-3)[Fuc(a1-3)[Gal(b1-4)]GlcNAc(b1-2)Man(a1-6)]Man(b1-4)GlcNAc(b1-4)[Fuc(a1-6)]GlcNAc", "summary_of_the_method": "as §1"}, "[6]": {"molecular_target": "Fuc(a1-3)[Gal(b1-4)]GlcNAc(b1-3)Gal(b1-3)[Fuc(a1-4)]GlcNAc", "summary_of_the_method": "as §1"}, "[7]": {"molecular_target": "Fuc(a1-3)[Gal(b1-4)]GlcNAc(b1-3)Gal(b1-4)[Fuc(a1-3)]GlcNAc", "summary_of_the_method": "as §1"}, "[8]": {"molecular_target": "Fuc(a1-3)[Gal(b1-4)]GlcNAc(b1-3)Gal(b1-4)[Fuc(a1-3)]GlcNAc(b1-3)Gal(b1-4)[Fuc(a1-3)]GlcNAc", "summary_of_the_method": "as §1"}, "[9]": {"molecular_target": "Fuc(a1-3)[Gal(b1-4)]GlcNAc(b1-3)GalNAc", "summary_of_the_method": "as §1"}, "[10]": {"molecular_target": "Fuc(a1-3)[Gal(b1-4)]GlcNAc(b1-6)GalNAc", "summary_of_the_method": "as §1"}, "[11]": {"molecular_target": "Fuc(a1-3)[Gal(b1-4)]GlcNAc(b1-6)[Gal(b1-3)GlcNAc(b1-3)]Gal(b1-4)Glc", "summary_of_the_method": "as §1"}, "[12]": {"molecular_target": "Fuc(a1-3)[Gal(b1-4)]GlcNAc6S", "summary_of_the_method": "as §1"}, "[13]": {"molecular_target": "Fuc(a1-3)[Gal3S(b1-4)]Glc", "summary_of_the_method": "as §1"}, "[14]": {"molecular_target": "Fuc(a1-3)[Gal3S(b1-4)]GlcNAc", "summary_of_the_method": "as §1"}, "[15]": {"molecular_target": "Fuc(a1-3)[Gal3S(b1-4)]GlcNAc6S", "summary_of_the_method": "as §1"}, "[16]": {"molecular_target": "Fuc(a1-3)[GalNAc(b1-4)]GlcNAc", "summary_of_the_method": "as §1"}, "[17]": {"molecular_target": "Fuc(a1-3)[GalNAc(b1-4)]GlcNAc6S", "summary_of_the_method": "as §1"}, "Fuc(a1-4)GlcNAc": {"molecular_target": "Fuc(a1-4)GlcNAc", "summary_of_the_method": "as §1"}, "Fuc(b1-3)GlcNAc": {"molecular_target": "Fuc(b1-3)GlcNAc", "summary_of_the_method": "as §1"}, "Gal(a1-2)Gal": {"molecular_target": "Gal(a1-2)Gal", "summary_of_the_method": "as §1"}, "Gal(a1-3)Gal": {"molecular_target": "Gal(a1-3)Gal", "summary_of_the_method": "as §1"}, "Gal(a1-3)Gal(b1-3)GlcNAc": {"molecular_target": "Gal(a1-3)Gal(b1-3)GlcNAc", "summary_of_the_method": "as §1"}, "[18]": {"molecular_target": "Gal(a1-3)Gal(b1-3)GlcNAc(b1-2)Man", "summary_of_the_method": "as §1"}, "[19]": {"molecular_target": "Gal(a1-3)Gal(b1-3)GlcNAc(b1-2)Man(a1-3)[Gal(a1-3)Gal(b1-3)GlcNAc(b1-2)Man(a1-6)]Man(b1-4)GlcNAc(b1-4)GlcNAc", "summary_of_the_method": "as §1"}, "[20]": {"molecular_target": "Gal(a1-3)Gal(b1-3)GlcNAc(b1-3)GalNAc", "summary_of_the_method": "as §1"}, "[21]": {"molecular_target": "Gal(a1-3)Gal(b1-3)GlcNAc(b1-6)GalNAc", "summary_of_the_method": "as §1"}, "[22]": {"molecular_target": "Gal(a1-3)Gal(b1-3)[Fuc(a1-4)]GlcNAc(b1-2)Man(a1-3)[Gal(a1-3)Gal(b1-3)[Fuc(a1-4)]GlcNAc(b1-2)Man(a1-6)]Man(b1-4)GlcNAc(b1-4)GlcNAc", "summary_of_the_method": "as §1"}, "Gal(a1-3)Gal(b1-4)Glc": {"molecular_target": "Gal(a1-3)Gal(b1-4)Glc", "summary_of_the_method": "as §1"}, "Gal(a1-3)Gal(b1-4)GlcNAc": {"molecular_target": "Gal(a1-3)Gal(b1-4)GlcNAc", "summary_of_the_method": "as §1"}, "[23]": {"molecular_target": "Gal(a1-3)Gal(b1-4)GlcNAc(b1-2)Man", "summary_of_the_method": "as §1"}, "[24]": {"molecular_target": "Gal(a1-3)Gal(b1-4)GlcNAc(b1-2)Man(a1-3)[Gal(a1-3)Gal(b1-4)GlcNAc(b1-2)Man(a1-6)]Man(b1-4)GlcNAc(b1-4)GlcNAc", "summary_of_the_method": "as §1"}, "[25]": {"molecular_target": "Gal(a1-3)Gal(b1-4)GlcNAc(b1-3)GalNAc", "summary_of_the_method": "as §1"}, "[26]": {"molecular_target": "Gal(a1-3)Gal(b1-4)GlcNAc(b1-6)GalNAc", "summary_of_the_method": "as §1"}, "[27]": {"molecular_target": "Gal(a1-3)Gal(b1-4)[Fuc(a1-3)]GlcNAc", "summary_of_the_method": "as §1"}, "[28]": {"molecular_target": "Gal(a1-3)Gal(b1-4)[Fuc(a1-3)]GlcNAc(b1-2)Man(a1-3)[Gal(a1-3)Gal(b1-4)[Fuc(a1-3)]GlcNAc(b1-2)Man(a1-6)]Man(b1-4)GlcNAc(b1-4)GlcNAc", "summary_of_the_method": "as §1"}, "Gal(a1-3)GalNAc": {"molecular_target": "Gal(a1-3)GalNAc", "summary_of_the_method": "as §1"}, "[29]": {"molecular_target": "Gal(a1-3)[Gal(a1-4)]Gal(b1-4)GlcNAc", "summary_of_the_method": "as §1"}, "[30]": {"molecular_target": "Gal(a1-4)Gal(b1-3)GlcNAc(b1-2)Man(a1-3)[Gal(a1-4)Gal(b1-3)GlcNAc(b1-2)Man(a1-6)]Man(b1-4)GlcNAc(b1-4)GlcNAc", "summary_of_the_method": "as §1"}, "Gal(a1-4)Gal(b1-4)Glc": {"molecular_target": "Gal(a1-4)Gal(b1-4)Glc", "summary_of_the_method": "as §1"}, "Gal(a1-4)Gal(b1-4)GlcNAc": {"molecular_target": "Gal(a1-4)Gal(b1-4)GlcNAc", "summary_of_the_method": "as §1"}, "[31]": {"molecular_target": "Gal(a1-4)Gal(b1-4)GlcNAc(b1-2)Man(a1-3)[Gal(a1-4)Gal(b1-4)GlcNAc(b1-2)Man(a1-6)]Man(b1-4)GlcNAc(b1-4)GlcNAc", "summary_of_the_method": "as §1"}, "[32]": {"molecular_target": "Gal(a1-4)Gal(b1-4)GlcNAc(b1-3)Gal(b1-4)Glc", "summary_of_the_method": "as §1"}, "Gal(a1-4)GlcNAc": {"molecular_target": "Gal(a1-4)GlcNAc", "summary_of_the_method": "as §1"}, "Gal(a1-6)Glc": {"molecular_target": "Gal(a1-6)Glc", "summary_of_the_method": "as §1"}},
  "note": "This is one part of the list.",
  "data": [
    {"binder": "B1", "values": [
      {"measurement": "glycan array binding signal (z-score)", "setting": "Fuc(a1-3)GlcNAc", "result": 0.348},
      {"measurement": "glycan array binding signal (z-score)", "setting": "[1]", "result": -0.342},
      {"measurement": "glycan array binding signal (z-score)", "setting": "[2]", "result": -0.284},
      {"measurement": "glycan array binding signal (z-score)", "setting": "[3]", "result": -0.444},
      {"measurement": "glycan array binding signal (z-score)", "setting": "[4]", "result": -0.045},
      {"measurement": "glycan array binding signal (z-score)", "setting": "[5]", "result": 1.85},
      {"measurement": "glycan array binding signal (z-score)", "setting": "[6]", "result": -0.344},
      {"measurement": "glycan array binding signal (z-score)", "setting": "[7]", "result": -0.254},
      {"measurement": "glycan array binding signal (z-score)", "setting": "[8]", "result": -0.6},
      {"measurement": "glycan array binding signal (z-score)", "setting": "[9]", "result": -0.25},
      {"measurement": "glycan array binding signal (z-score)", "setting": "[10]", "result": -0.027},
      {"measurement": "glycan array binding signal (z-score)", "setting": "[11]", "result": -0.943},
      {"measurement": "glycan array binding signal (z-score)", "setting": "[12]", "result": -0.279},
      {"measurement": "glycan array binding signal (z-score)", "setting": "[13]", "result": -0.083},
      {"measurement": "glycan array binding signal (z-score)", "setting": "[14]", "result": -0.389},
      {"measurement": "glycan array binding signal (z-score)", "setting": "[15]", "result": -0.116},
      {"measurement": "glycan array binding signal (z-score)", "setting": "[16]", "result": -0.092},
      {"measurement": "glycan array binding signal (z-score)", "setting": "[17]", "result": -0.987},
      {"measurement": "glycan array binding signal (z-score)", "setting": "Fuc(a1-4)GlcNAc", "result": 0.939},
      {"measurement": "glycan array binding signal (z-score)", "setting": "Fuc(b1-3)GlcNAc", "result": 0.624},
      {"measurement": "glycan array binding signal (z-score)", "setting": "Gal(a1-2)Gal", "result": -0.042},
      {"measurement": "glycan array binding signal (z-score)", "setting": "Gal(a1-3)Gal", "result": 0.655},
      {"measurement": "glycan array binding signal (z-score)", "setting": "Gal(a1-3)Gal(b1-3)GlcNAc", "result": -0.405},
      {"measurement": "glycan array binding signal (z-score)", "setting": "[18]", "result": 0.294},
      {"measurement": "glycan array binding signal (z-score)", "setting": "[19]", "result": 1.32},
      {"measurement": "glycan array binding signal (z-score)", "setting": "[20]", "result": 0.019},
      {"measurement": "glycan array binding signal (z-score)", "setting": "[21]", "result": -0.514},
      {"measurement": "glycan array binding signal (z-score)", "setting": "[22]", "result": 1.26},
      {"measurement": "glycan array binding signal (z-score)", "setting": "Gal(a1-3)Gal(b1-4)Glc", "result": 0.058},
      {"measurement": "glycan array binding signal (z-score)", "setting": "Gal(a1-3)Gal(b1-4)GlcNAc", "result": 1.19},
      {"measurement": "glycan array binding signal (z-score)", "setting": "[23]", "result": 0.954},
      {"measurement": "glycan array binding signal (z-score)", "setting": "[24]", "result": -0.011},
      {"measurement": "glycan array binding signal (z-score)", "setting": "[25]", "result": -0.713},
      {"measurement": "glycan array binding signal (z-score)", "setting": "[26]", "result": -0.547},
      {"measurement": "glycan array binding signal (z-score)", "setting": "[27]", "result": -0.559},
      {"measurement": "glycan array binding signal (z-score)", "setting": "[28]", "result": 1.7},
      {"measurement": "glycan array binding signal (z-score)", "setting": "Gal(a1-3)GalNAc", "result": -0.806},
      {"measurement": "glycan array binding signal (z-score)", "setting": "[29]", "result": 0.608},
      {"measurement": "glycan array binding signal (z-score)", "setting": "[30]", "result": 0.009},
      {"measurement": "glycan array binding signal (z-score)", "setting": "Gal(a1-4)Gal(b1-4)Glc", "result": -0.565},
      {"measurement": "glycan array binding signal (z-score)", "setting": "Gal(a1-4)Gal(b1-4)GlcNAc", "result": -0.633},
      {"measurement": "glycan array binding signal (z-score)", "setting": "[31]", "result": 0.919},
      {"measurement": "glycan array binding signal (z-score)", "setting": "[32]", "result": -0.763},
      {"measurement": "glycan array binding signal (z-score)", "setting": "Gal(a1-4)GlcNAc", "result": -0.878},
      {"measurement": "glycan array binding signal (z-score)", "setting": "Gal(a1-6)Glc", "result": -0.584}
    ]}
  ]
}
